Source: article PMC10014102
Results are given in words; binding and its absence hold for the method and conditions named. In cells and extracts the contact can be indirect. Some results given as binding are weak or reduced against the parent protein; the word gives no strength.

Biological target: mouse R172H mutp53 (knockin, thymic lymphomas) (mouse (endogenous in thymic lymphomas)) (UniProt P02340)
Assay: co-IP; endogenous proteins in thymic lymphomas of TRIM21+/+ p53R172H/R172H and TRIM21-/- p53R172H/R172H mice

binding: binds
B1: mouse TRIM21 (endogenous, thymic lymphomas) (enzyme, UniProt Q62191 1-470)
chain: MSPSTTSKMSLEKMWEEVTCSICLDPMVEPMSIECGHCFCKECIFEVGKNGGSSCPECRQQFLLRNLRPNRHIANMVENLKQIAQNTKKSTQETHCMKHGEKLHLFCEEDGQALCWVCAQSGKHRDHTRVPIEEAAKVYQEKIHVVLEKLRKGKELAEKMEMDLTMQRTDWKRNIDTQKSRIHAEFALQNSLLAQEEQRQLQRLEKDQREYLRLLGKKEAELAEKNQALQELISELERRIRGSELELLQEVRIILERSGSWNLDTLDIDAPDLTSTCPVPGRKKMLRTCWVHITLDRNTANSWLIISKDRRQVRMGDTHQNVSDNKERFSNYPMVLGAQRFSSGKMYWEVDVTQKEAWDLGVCRDSVQRKGQFSLSPENGFWTIWLWQDSYEAGTSPQTTLHIQVPPCQIGIFVDYEAGVVSFYNITDHGSLIYTFSECVFAGPLRPFFNVGFNYSGGNAAPLKLCPLKM
